The other results are listed elsewhere or left out. Shown are side measurements of this screen, not its main read-out; they come without a call. Most of these compounds were active or inconclusive in the main read-out, so they are no random draw. Potencies come from curve fits of mixed quality, noted in brackets.

Our source for the cell number change and AC50 values is PubChem BioAssay AID2685 (National Center for Advancing Translational Sciences (NCATS), 2010).

A short description of this assay: qHTS Assay for Lipid Storage Modulators in Drosophila S3 Cells.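 For cell number change: cells counted by Cell Tracker Red CMTPX staining in the red channel.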 Conditions: BODIPY lipid droplet fluorescence, 18-24 h; for cell number change: measured here: cell count max response, cells fed with added oleic acid. In short, it runs like this: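 Drosophila S3 cells got compounds at several concentrations plus oleic acid (400 uM solution). Laser-scanning cytometry with 488 nm excitation read lipid droplets at 500-530 nm and cells at 575-640 nm. Percent activity was relative to 20 uM Triacsin C.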
(In general: Quantitative high-throughput screening tests each substance at several concentrations.)

The mark [1] stands for this setting: measured here: lipid fluorescence (Fed channel) AC50, cells fed with added oleic acid.
Setting [2] is: measured here: cell number channel AC50, cells fed with added oleic acid.

With `COCCNC(=O)/C(C#N)=C/c1cccc(/C=C(\C#N)C(=O)NCCOC)c1`, the cell number change turned out to be 11.5%. Also, the AC50 (in general, the midpoint of the concentration-response curve, whichever way the signal moves) under setting [1] was 1.84 µM [falling, partial curve, poor fit]. With `Cc1ccc(C)c(NC(=O)CN(C)C(=O)c2sccc2C)c1`, under setting [1], the AC50 is 29.1 µM [falling, single point]. Take `COc1cc(/C=C(\C#N)C(=O)Nc2cc(C(F)(F)F)ccc2Cl)ccc1OCC(=O)Nc1cccc(C(F)(F)F)c1`: the cell number change is -10.6%. Besides, the AC50 under setting [1] is 29.1 µM [falling, single point].

For `C=CCNC(=O)NC(=O)COC(=O)C(C)Oc1ccc(Cl)cc1Cl` (stereo not given), the cell number change was -31%. Also, the AC50 under setting [2] is 32.6 µM [falling, single point]. Regarding `O=C(Nc1cccc(S(=O)(=O)N2CCOCC2)c1)c1ccc(N2CCCC2=O)cc1`, the cell number change was -30.9%. For the same molecule, the AC50 under setting [2] is 32.6 µM [falling, single point]. Also, the concentration at half-maximal activity (AC50) under setting [1] was 29.1 µM [falling, single point]. With `O=C(CSc1nnc(Cc2cccs2)n1C1CCCCC1)N1CCCc2ccccc21`, the cell number change is 14.8%. Also, under setting [1], the AC50 was 0.731 µM [falling, single point]. With `C/C(=N\NC(=O)c1c[nH]c2ccccc12)c1ccccn1`, the cell number change was determined as 22.7%. For the molecule `CN(C(=O)CSc1nc(N)nn1-c1ccccc1)c1ccccc1`, the cell number change turned out to be 33.6%. For the same molecule, under setting [2], the AC50 was 18.4 µM [rising, single point]. For the same molecule, the AC50 under setting [1] is 25.9 µM [rising, single point]. Turning to `CCCCn1c(CCC)nc([N+](=O)[O-])c1Sc1ccc(Cl)cn1`, the cell number change is -17.2%. In addition, the AC50 under setting [1] was 9.2 µM [falling, partial curve]. `O=C(OCC(=O)N1CCOCC1)c1ccc(Br)cc1`: the cell number change turned out to be 25.7%. Besides, under setting [1], the AC50 is 29.1 µM [rising, single point]. With `O=C(CSCc1cccc(CSCC(=O)Nc2ccc3ccccc3c2)n1)Nc1ccc2ccccc2c1`, the cell number change is -12.1%. For the same molecule, the AC50 under setting [2] was 0.00411 µM [rising, full curve, poor fit]. For `COc1cccc(CN2CCNC(=O)C2CC(=O)NCC(C)(C)N2CCOCC2)c1OC` (stereo not given), the cell number change came out at 15.3%. Take `NC(=O)c1ccc(NC(=O)COC(=O)CNC(=O)c2sc3ccccc3c2Cl)cc1`: the cell number change is 2.76%. Also, under setting [1], the AC50 is 0.146 µM [falling, partial curve, poor fit]. Take `COc1ccc(-n2ncc3c2CC(C)(C)CC3NC(=O)CCn2nc(C)cc2C)cc1` (stereo not given): the cell number change was -5.38%. With `CCCCn1c(N)c(N(CC(C)C)C(=O)CSc2ccccc2C)c(=O)[nH]c1=O`, the cell number change came out at 12.5%. The AC50 under setting [2] is 0.651 µM [falling, single point].

For `CCCOC(=O)c1ccc(-n2nnnc2SCC(=O)N2CCCCC2)cc1`, the cell number change was -22.7%. The AC50 under setting [1] is 29.1 µM [falling, single point]. On to `O=C(N/N=C/c1ccccc1O)c1cccc(C(F)(F)F)c1`, for which the cell number change was -16.6%. For `O=C(NCC1CCCN1S(=O)(=O)c1cccs1)C(=O)Nc1ccc(F)cc1` (stereo not given), the AC50 under setting [2] is 5.17 µM [rising, single point]. Turning to `CCCCn1c(N)c(N(C)C(=O)c2cn(-c3ccccc3)nc2-c2ccccc2)c(=O)[nH]c1=O`, the cell number change was -4.42%.

As for `C=C1C(=O)O[C@H]2C[C@]3(C)C([C@@H](OC(=O)/C(C)=C/C)[C@H]12)[C@](C)(O)CC[C@H]3O` (stereo not given in full), the cell number change was found to be 40.1%. For the same molecule, the AC50 under setting [1] is 29.1 µM [rising, single point]. For `COc1ccccc1C(=O)NCC(=O)OCC(=O)N1CC(C)OC(C)C1` (stereo not given), the cell number change is -9.64%.

As to `CN1C=CC=C/C1=C1/SC(=S)N(Cc2ccccc2)C1=O`, the cell number change was -27.8%. Moreover, the AC50 under setting [2] was 0.651 µM [falling, full curve, poor fit]. For the same molecule, under setting [1], the AC50 was 29.1 µM [falling, partial curve, poor fit]. `CNC(=O)Nc1ccccc1F`: the cell number change was -58.9%. Moreover, under setting [2], the AC50 was 29.1 µM [falling, single point]. For the same molecule, the AC50 under setting [1] was 29.1 µM [falling, single point].

For the molecule `CN(CCOc1ccccc1)C(=O)c1ccc(Cl)c(S(=O)(=O)N2CCCCC2)c1`, the cell number change is -7.84%.

On to `CCc1ccc(NC(=O)C2CCCN(S(=O)(=O)c3c(C)[nH]c(=O)[nH]c3=O)C2)cc1` (stereo not given), for which the cell number change is 75.1%. Consider `Cc1cnc(C(=O)OC(C(=O)Nc2cc(C(F)(F)F)ccc2Cl)c2ccccc2)cn1` (stereo not given), for which the cell number change was determined as 31.1%. Besides, the AC50 under setting [2] is 2 µM [rising, full curve]. Under setting [1], the AC50 was 10 µM [rising, partial curve, poor fit]. Regarding `Cc1nc2cc(NC(=O)N3CCC(c4ccccc4)C3)ccc2n1C` (stereo not given), the cell number change was -15.4%. For the same molecule, under setting [1], the AC50 was 1.16 µM [rising, partial curve]. As for `COC(=O)c1ccc(Cn2nc(-c3ccc(C)c(C)c3)ccc2=O)cc1`, the AC50 under setting [2] is 2.91 µM [rising, single point]. For `O=C(Nc1ccc2oc(-c3ccccc3Cl)nc2c1)c1cncc(Br)c1`, the cell number change is -14.1%. As to `CCOC(=O)C(C)(C)N(Cc1cccc(C)c1)S(=O)(=O)c1ccc(Cl)c([N+](=O)[O-])c1`, the AC50 under setting [1] is 18.4 µM [falling, partial curve]. Take `CC(C)Oc1cccc(C(=O)NC(=S)Nc2ccc(Cl)c(C(=O)O)c2)c1`: the cell number change is -24.2%. With `CCOC(=O)c1cnc(SC)nc1Oc1cccc(NC(=O)c2ccc(Cl)cc2)c1`, the cell number change worked out at 2.99%.

On to `C#CCn1cc(/C=N/NC(=O)COc2cccc3cccnc23)c2ccccc21`, for which the cell number change is -58.1%. Moreover, the AC50 under setting [2] is 29.1 µM [falling, single point]. In addition, the AC50 under setting [1] was 3.66 µM [rising, partial curve, poor fit]. Take `CC(C)(C)NC(=O)c1cccc(NC(=O)Cc2ccc(Br)cc2)c1`: the cell number change is 46.5%. In addition, the AC50 under setting [2] was 10.3 µM [rising, partial curve]. In addition, under setting [1], the AC50 was 16.4 µM [rising, partial curve]. For `CN(C)S(=O)(=O)c1cccc(C(=O)Nc2cc3c(cc2C(=O)O)OCCCO3)c1`, the cell number change worked out at 25.3%. Also, under setting [1], the AC50 was 5.17 µM [falling, single point]. On to `NS(=O)(=O)c1cccc(NC(=O)c2cccc3c(Br)cccc23)c1`, for which the cell number change is -6.74%. Also, the AC50 under setting [1] is 16.4 µM [rising, single point]. With `COc1ccc(C(=O)Nc2ccc(N3CCOCC3)cc2)cc1S(=O)(=O)N1CCCC1`, the cell number change came out at 45.5%. Further, under setting [2], the AC50 was 29.1 µM [rising, single point]. Regarding `O=C(CCN1C(=O)c2ccccc2C1=O)Nc1sc2c(c1C(=O)NCc1ccco1)CCCC2`, the cell number change is -36.7%. The AC50 under setting [2] is 23.1 µM [falling, single point]. For the same molecule, the AC50 under setting [1] is 20.6 µM [falling, partial curve, poor fit]. With `O=C(Nc1ccc(C(F)(F)F)cc1)C1CC(=O)N(c2ccc3c(c2)OCCO3)C1` (stereo not given), the AC50 under setting [1] was 0.58 µM [falling, single point]. Turning to `CC(N)=Nc1ccc([N+](=O)[O-])cc1`, the cell number change is -15%. The AC50 under setting [1] is 6.51 µM [falling, partial curve].

As to `CSc1ccccc1OCc1cc(C(=O)N2C[C@H]3CC[C@H]2C3)no1`, the cell number change worked out at 8.41%. Regarding `NCCc1nc(-c2ccccc2)cs1`, the cell number change amounted to 0.442%. The AC50 under setting [2] was 0.517 µM [rising, single point]. For the molecule `COc1ccc(OC)c(NC(=O)CSc2nc(=O)n(CCN3CCOCC3)c3c2CCCC3)c1`, the cell number change was -1.02%. In the case of `CSc1nccn1CC(=O)Nc1ccc(F)cc1`, the cell number change was determined as 23.1%. The AC50 under setting [1] is 32.6 µM [rising, single point].

As for `Cc1ccc(-c2nnn(CC(=O)N(Cc3ccco3)C(C(=O)NC(C)(C)C)c3ccncc3)n2)o1` (stereo not given), the cell number change came to 0.151%. Besides, the AC50 under setting [1] was 0.146 µM [falling, partial curve, poor fit]. In the case of `CC(C)CCNC(=O)Cn1cc2c(n1)CCCCC2`, the AC50 under setting [1] is 0.0291 µM [falling, full curve, poor fit]. `Cc1nc2ccc3nc(NC(=O)c4ccc5c(c4)OCCO5)sc3c2s1`: the cell number change is -6.56%. Besides, the AC50 under setting [1] is 1.46 µM [falling, full curve].

Regarding `COC(=O)c1c(NC(=O)C2CC=CCC2C(=O)O)sc(C)c1C` (stereo not given), the cell number change turned out to be 15.4%. Besides, the AC50 under setting [1] was 29.1 µM [rising, single point]. With `Cc1cc(=O)n2c(C(=O)Nc3ccc(C(=O)OC(C)C)cc3)c(C(=O)Nc3ccccc3)sc2n1`, the cell number change was 9.78%. Also, the AC50 under setting [1] is 18.4 µM [falling, partial curve]. For the molecule `CCSc1nnc(-c2ccc(S(=O)(=O)N3CCOCC3)cc2)n1C`, the cell number change was found to be 5.13%. Also, the AC50 under setting [1] was 25.9 µM [rising, single point]. Consider `COc1cccc(C=O)c1OCCCOc1cccc2cccnc12`, for which the cell number change is -22.8%. For the same molecule, under setting [1], the AC50 was 5.8 µM [falling, full curve, poor fit]. In the case of `CCCc1nc2c(s1)CCc1onc(-c3cccc([N+](=O)[O-])c3)c1-2`, the cell number change is -13.9%. Besides, the AC50 under setting [1] is 5.17 µM [rising, full curve]. `Cc1ccc2c(c1)N(C(=O)CCC(=O)NCCN1CCOCC1)CC(C)O2` (stereo not given): the cell number change worked out at 20.7%. Also, the AC50 under setting [1] is 0.651 µM [rising, single point]. Take `Nc1c(-c2ccc(Cl)cc2)cnn1-c1cc(C(F)(F)F)cc(C(F)(F)F)c1`: the AC50 reads like this: under setting [2], 2.06 µM [rising, partial curve]; under setting [1], 1.64 µM [rising, partial curve]. On to `O=C(CSc1nnnn1-c1ccccc1)N1CCN(C(=O)c2ccco2)CC1`, for which the cell number change was 27.4%. Under setting [1], the AC50 was 2.06 µM [rising, single point]. As to `CCN(CC)C(=O)N1CCN(S(=O)(=O)c2ccc(C)cc2)CC1`, the cell number change is -11.8%. As to `COc1cccc(Nc2ncnc3c2cnn3-c2cccc(C)c2)c1`, the cell number change is -28.6%. The AC50 under setting [1] was 23.1 µM [falling, single point]. For the molecule `c1ccc(OCCSc2nnnn2-c2ccccc2)cc1`, the cell number change was -31%. Moreover, the AC50 under setting [2] was 29.1 µM [falling, single point]. Moreover, under setting [1], the AC50 is 0.517 µM [falling, partial curve, poor fit]. Turning to `Cc1oc(C)c(C(=O)O)c1C(=O)O`, the AC50 by setting is: under setting [2], 6.51 µM [falling, single point]; under setting [1], 6.51 µM [falling, single point]. In the case of `COc1cccc(C(=O)Nc2nnc(-c3cccs3)s2)c1`, the cell number change was 1.74%. The AC50 under setting [1] is 0.092 µM [falling, full curve, poor fit]. As for `Cc1ccc(OCC(=O)N2CCN(S(=O)(=O)c3ccc4c(c3)OCCO4)CC2)c(C)c1`, the cell number change is 4.89%.
